The values below come from PMC4490372.

For part of these data: A weaker result is weaker than the reference pair of the same experiment. For part of these data: Protein sequences can lack the tags named with them. Construct, isoform or probe ends are uncertain for at least one entry.

The subject of series [1] is TFIIIC (six-subunit complex: τ138, τ131, τ95, τ91, τ60, τ55) (Saccharomyces cerevisiae SC2342). Briefly: EMSA. The settings on record: EMSA: 20 mM Tris pH 7.5, 150 mM NaCl, 1 mM MgCl2, 2 mM DTT, 25 °C, 30 min; 4.5% acrylamide gel in Tris-glycine; native protein; protein details: C-terminal TAP on τ60 (Tfc8), TEV-cleaved; label: 32P end label. For orientation: A gel shift assay detects complexes by their altered migration in electrophoresis.

For series [2], the target named is T1, τ138 eWH domain (Saccharomyces cerevisiae) (UniProt P34111).
T1 sequence (looked up): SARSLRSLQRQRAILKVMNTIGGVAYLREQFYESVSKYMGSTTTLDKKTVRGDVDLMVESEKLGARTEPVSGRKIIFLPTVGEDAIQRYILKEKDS
Briefly: EMSA. The settings on record: very weak unspecific binding, EMSA: 20 mM Tris pH 7.5, 150 mM NaCl, 1 mM MgCl2, 2 mM DTT, 25 °C, 30 min, 4.5% acrylamide gel in Tris-glycine, recombinant protein, residues 546-641, protein details: 6xHis-GST removed by TEV, label: 32P end label.

With “CGATATAGTGTAACGGCTATCACATCACGCTTTCACCGTGGAGACCGGGGTTCGACTCCCCGTATC (double strand) [66 bp tDNAGlu oligonucleotide (ds)]”, the binding result was “binds” in series [1] and “binds more weakly” in series [2].
As to “CGATATAGTGTAACGGCTATCACATCACGCTTTCACCGTGGAGACCGGGGTTCGACTCCCCGTATC [66 nt tDNAGlu oligonucleotide (ss)]”, in series [2] (single-stranded …), the binding result was “binds more weakly”.
